In paper PMC7583736 one finds binding data, which are given here for three molecules.

By UniProt entry, the sequences of proteins in these tests, tags left out.
UniProt Q9UIV1: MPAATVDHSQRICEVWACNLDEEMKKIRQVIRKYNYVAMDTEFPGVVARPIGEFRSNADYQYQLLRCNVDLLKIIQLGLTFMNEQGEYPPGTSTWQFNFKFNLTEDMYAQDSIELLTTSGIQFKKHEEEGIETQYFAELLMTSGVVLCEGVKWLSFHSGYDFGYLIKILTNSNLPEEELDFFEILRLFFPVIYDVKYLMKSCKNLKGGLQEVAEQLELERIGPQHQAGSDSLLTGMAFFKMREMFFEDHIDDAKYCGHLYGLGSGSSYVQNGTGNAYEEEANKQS

The target of assay [1] is T1, HA-ZFP36L1 (ZFP36 ring finger protein like 1) (human) (UniProt Q07352).
T1 sequence: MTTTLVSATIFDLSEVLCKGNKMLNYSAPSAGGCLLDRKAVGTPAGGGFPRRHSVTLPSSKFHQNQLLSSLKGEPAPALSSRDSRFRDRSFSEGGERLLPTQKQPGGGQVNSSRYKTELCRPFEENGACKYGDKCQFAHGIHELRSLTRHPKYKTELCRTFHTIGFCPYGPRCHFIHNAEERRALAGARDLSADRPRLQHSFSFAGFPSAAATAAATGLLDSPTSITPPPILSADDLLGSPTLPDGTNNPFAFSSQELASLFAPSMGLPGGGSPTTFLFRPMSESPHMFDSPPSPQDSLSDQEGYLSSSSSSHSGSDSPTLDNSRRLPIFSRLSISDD
As to the kind of experiment: co-IP; lysate of HepG2 cells transfected with HA-ZFP36L1, immunoprecipitated with anti-HA, immunoblot for endogenous CNOT7; cells treated with or without U0126 for one hour before TCN or PMA for four hours (Figure 5b).

The target in assay [2] is FLAG-CNOT7 (human) (UniProt Q9UIV1). As to the kind of experiment: co-IP; HepG2 lysate immunoprecipitated with anti-FLAG (F7425) overnight at 4 °C, Protein G Mag Sepharose, washed with co-IP buffer, immunoblot; cells treated with or without U0126 for one hour before TCN or PMA for four hours (Figure 5a, 5c). A general note: In western blotting, separated proteins are transferred to a membrane and probed.

Results are given in words; binding and its absence hold for the method and conditions named. In cells and extracts the contact can be indirect. Some binding calls cover weakened binding; strength is not graded here. Tags and fused reporters may be left off the sequences shown.

For the molecule “endogenous CNOT7 (from UniProt Q9UIV1 1-285)”, the binding entry in assay [1] is recorded as “binds”.

B1: HA-ZFP36L1 (ZFP36 ring finger protein like 1) (protein, UniProt Q07352 1-338)
chain: T1 sequence
Take B1: in assay [2], the binding result is on record as “binds”.

B2: endogenous ZFP36L1 (protein, UniProt Q07352 1-338)
chain: T1 sequence
Take B2: in assay [2], the binding result is reported as “binds”.
